PubChem BioAssay AID652259 – Drosophila RNAi Screening Center – 2013
The screen tested about 22,000 reagents; below is a random part of those that have a named target and a result. Of all reagents, 233 (1.1%) got an active call. 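Light values are raw, unnormalised plate reads; the ratio scores behind the reporter calls were not deposited.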 A number with no mark means an inactive call. A plus sign joins genes that one reagent is predicted to hit. No sequences are given here. The record does not give: the amount of reagent, the time to read-out, the dose of the treatment.

Purpose: 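Genome-wide hunt for genes that control Wingless pathway activity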 (primary screen)
System: Drosophila clone 8 imaginal disc epithelial cells
Knock-down reagent: long dsRNA against Drosophila genes
Treatment: pathway stimulated by co-transfected Wingless expression plasmid
Read-out: 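Dual luciferase reads per well after Wingless plasmid stimulation: reporter firefly light and Renilla control light; activity is firefly divided by Renilla, a ratio not deposited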
Direction: firefly reporter light: higher = more Wg reporter light, before normalisation; Renilla control light: higher = more transfected or surviving cells
Call rule: 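Strong candidates differ from their plate mean by at least two out of four per-plate statistical tests; weak candidates meet just one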
Calls: active = candidate regulator (raises or lowers reporter); inactive = not a candidate

no.	gene	amplicon	reporter change call, replicate 1	firefly reporter light, replicate 1	firefly reporter light, replicate 2	Renilla control light, replicate 1	Renilla control light, replicate 2
1	CG8818	DRSC07275		9389		1712	
2	ena	DRSC05779		11831		5896	
3	ena	DRSC07610		14022		3699	
4	Prx3	DRSC15883		3593	8106	1362	2493
5	CG13193	DRSC06318		6629		2618	
6	CG31948	DRSC00740		3081	7100	1200	3185
7	CG13247	DRSC11695		22355		7494	
8	CG34135 + CG11768	DRSC12702		2852		1129	
9	pst	DRSC11003		2624		956	
10	Gyc89Db	DRSC15009		2240	5984	1412	2547
11	CG15530	DRSC15067		9460		3424	
12	Cyp308a1	DRSC20238		27168		14317	
13	CG42816	DRSC11230		5938		3065	
14	ImpL2	DRSC08666		3257		1305	
15	CG8526	DRSC16438		18344		4908	
16	Alg10	DRSC10892		5282		2058	
17	CG5681	DRSC02876		2720	6872	901	3821
18	BBS5	DRSC12168		12809		4652	
19	caup	DRSC11334		6464		1305	
20	Not11	DRSC04204		2790	7543	776	2701
21	mthl12	DRSC12964		2772		1429	
22	CG5478	DRSC15814		20082		4583	
23	Ets96B	DRSC16127		20461		16985	
24	Alg3	DRSC04700		8832		2477	
25	l(2)09851	DRSC04858		4042	8400	962	3139

The list goes on (10 carried over from the part before).
no.	gene	amplicon	reporter change call, replicate 1	firefly reporter light, replicate 1	firefly reporter light, replicate 2	Renilla control light, replicate 1	Renilla control light, replicate 2
16	Alg10	DRSC10892		5282		2058	
17	CG5681	DRSC02876		2720	6872	901	3821
18	BBS5	DRSC12168		12809		4652	
19	caup	DRSC11334		6464		1305	
20	Not11	DRSC04204		2790	7543	776	2701
21	mthl12	DRSC12964		2772		1429	
22	CG5478	DRSC15814		20082		4583	
23	Ets96B	DRSC16127		20461		16985	
24	Alg3	DRSC04700		8832		2477	
25	l(2)09851	DRSC04858		4042	8400	962	3139
26	Srpk79D	DRSC11668		9083		4081	
27	Srpk79D	DRSC11856		12518		4330	
28	Oatp26F	DRSC02149		1654	5623	689	1228
29	Oatp26F	DRSC02272		3060	5811	754	1152
30	Oatp26F	DRSC02695		2208	6842	871	1195
31	CG8562	DRSC10995		1233	7001	875	2945
32	CG17032	DRSC10241		10730		4308	
33	dtn	DRSC17939		18048		7792	
34	CG11920	DRSC14439		2832	4035	1418	1675
35	CG13285	DRSC09960		2150	6963	1808	4668
36	Cpr65Az	DRSC09882		1896	12344	1638	6321
37	Cpr65Az	DRSC22057		6.94e5	6.58e5	2.57e5	2.41e5
38	Nup75	DRSC06947		12652		3474	
39	bisc	DRSC04083		12384		3501	
40	nAChRalpha7	DRSC20078		16761		11380	
41	nAChRalpha7	DRSC20081		19734		10608	
42	sls	DRSC08528		15717		4218	
43	sls	DRSC08540		5520		2613	
44	sls	DRSC08670		6133		3191	
45	Decay	DRSC16930		19132		5176	
46	Kank	DRSC05513		20901		17484	
47	Kank	DRSC05933		10432		3767	
48	CG1213	DRSC12191		13524		2029	
49	CG7791	DRSC04891		10352		2329	
50	Cyp6t1	DRSC20564		19137		14208	
51	Strn-Mlck	DRSC05032		9792		3925	
52	Strn-Mlck	DRSC05598		14929		11514	
53	Strn-Mlck	DRSC06571		7488		2630	
54	Strn-Mlck	DRSC07471		4647		2121	
55	Nup214	DRSC04421		10416		2680	
56	Dlip3	DRSC07401		5155		2706	
57	Spn100A	DRSC14596		2496	6971	1015	2691
58	Cpr78Cc	DRSC11846		15034		4992	
59	CG31342	DRSC15349		9753		3425	
60	CG31342	DRSC16246		12672		2387	
61	Nup98-96	DRSC14209		6709	9573	1005	1179
62	Nup98-96	DRSC14210		9960		8720	
63	CG11889 + CG11891	DRSC14426		20349		17099	
64	CG11889 + CG11891	DRSC14427		19517		12249	
65	arg	DRSC18737		2736	11169	1081	3292
66	uno	DRSC07244		4747	7932	1130	3451
67	hop	DRSC20340		19285		8779	
68	CG3829	DRSC04423		14500		5274	
69	CG14346	DRSC00376		2628	8904	1132	3084
70	CG13390	DRSC02261		1978	7360	792	2928
71	CG31229	DRSC13309		4432		1273	
72	fz	DRSC11348	Wg reporter activity lowered (active)	1709		2321	
73	CG9815	DRSC04567		2416	6160	560	2904
